Measured values from ChEMBL document CHEMBL1149526, “Synthesis and SAR of selective benzothiophene, benzofuran, and indole-based peroxisome proliferator-activated receptor delta agonists” (Bioorg Med Chem Lett, 2007).

Molecular target: T1, Peroxisome proliferator-activated receptor gamma (Homo sapiens, UniProt P37231)
T1 sequence (P37231 whole entry): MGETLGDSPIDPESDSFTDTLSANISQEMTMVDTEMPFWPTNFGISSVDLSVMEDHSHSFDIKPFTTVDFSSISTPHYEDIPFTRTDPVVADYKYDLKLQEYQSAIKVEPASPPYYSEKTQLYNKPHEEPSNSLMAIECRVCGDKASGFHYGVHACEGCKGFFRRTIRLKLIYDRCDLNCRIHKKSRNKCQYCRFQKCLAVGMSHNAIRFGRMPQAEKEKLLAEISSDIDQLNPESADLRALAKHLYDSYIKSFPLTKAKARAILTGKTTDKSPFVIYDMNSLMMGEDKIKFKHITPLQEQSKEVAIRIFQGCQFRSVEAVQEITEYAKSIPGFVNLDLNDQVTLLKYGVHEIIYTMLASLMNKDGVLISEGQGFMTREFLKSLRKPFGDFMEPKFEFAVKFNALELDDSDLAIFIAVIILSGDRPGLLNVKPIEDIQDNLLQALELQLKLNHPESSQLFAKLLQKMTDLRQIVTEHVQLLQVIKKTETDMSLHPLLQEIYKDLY

Row | SMILES | IC50
1 | Cc1nc(-c2ccc(C(F)(F)F)cc2)sc1COc1ccc2c(CC(=O)O)csc2c1 | > 10 µM
2 | O=C(O)Cc1coc2cc(OCc3ccc(COc4ccc(C(F)(F)F)cc4)cc3)ccc12 | > 10 µM
3 | Cc1cc(OCc2cc(-c3ccc(C(F)(F)F)cc3)on2)cc2scc(CC(=O)O)c12 | > 10 µM
4 | O=C(O)Cn1ccc2cc(OCc3ccccc3COc3ccc(C(F)(F)F)cc3)ccc21 | > 10 µM
5 | Cc1nc(-c2ccc(C(F)(F)F)cc2)sc1COc1cc(Cl)c2c(CC(=O)O)csc2c1 | > 10 µM
6 | O=C(O)Cn1ccc2cc(OCc3ccc(Oc4ccc(C(F)(F)F)cc4)cc3)ccc21 | > 10 µM
7 | Cc1nc(C(F)(F)F)sc1CSc1ccc2c(ccn2CC(=O)O)c1 | > 10 µM
8 | O=C(O)Cn1ccc2cc(OCc3cc(-c4ccc(C(F)(F)F)cc4)on3)ccc21 | > 10 µM
9 | O=C(O)Cc1csc2cc(OCc3ccccc3COc3ccc(C(F)(F)F)cc3)ccc12 | > 10 µM
10 | O=C(O)Cc1coc2cc(OCc3cc(-c4ccc(C(F)(F)F)cc4)on3)ccc12 | > 10 µM
11 | O=C(O)Cn1ccc2cc(OCc3cccc(COc4ccc(C(F)(F)F)cc4)c3)ccc21 | > 10 µM
12 | O=C(O)Cc1coc2cc(OCc3ccccc3COc3ccc(C(F)(F)F)cc3)ccc12 | > 10 µM
13 | Cc1nc(C(F)(F)F)sc1COc1ccc2c(ccn2CC(=O)O)c1 | > 10 µM
14 | O=C(O)Cc1csc2cc(OCc3cc(-c4ccc(Cl)cc4)on3)ccc12 | > 10 µM
15 | O=C(O)Cc1coc2cc(OCc3cc(-c4ccc(Cl)cc4)on3)ccc12 | > 10 µM
